PubChem BioAssay AID686937, Drosophila RNAi Screening Center, 2013
Purpose: 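Genes whose loss weakens secretory pathway function in fly cells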 (primary screen). System: Drosophila S2 cells expressing secreted horseradish peroxidase. Reagents: long dsRNA against Drosophila genes. Duration: about 5.5 days (5 days dsRNA, then 12 h reporter induction). Challenge: reporter expression induced after 5 days of dsRNA, read 12 h later; inducer not stated. Measurement: 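Chemiluminescent measurement of peroxidase in the medium 12 h after reporter induction, following 5 days of dsRNA, given as a z-score per plate; higher means more secretion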. Reading the numbers: z-score: higher = more reporter secreted into medium.
The screen tested about 23,000 reagents; shown is an unselected part of those that have a named target and a result. 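Reduced-secretion tags in replicate 1 do not always agree with the z-scores; no criterion for assigning the tags was given.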 Reagents against one gene are numbered here. A plus sign joins genes that one reagent is predicted to hit. Further read-outs or replicates are left out here. Not stated in the record: the amount of reagent.

| gene knocked down | dsRNA no. | z-score, replicate 1 |
| --- | --- | --- |
| POLDIP2 (GeneID 40655) | 1 | 0.4 |
| CG17841 (GeneID 31965) | 1 | 0.66 |
| RpL7-like (GeneID 34625) | 1 | -3.32 |
| pns (GeneID 38178) | 1 | 0.36 |
| NimB1 (GeneID 34813) | 1 | 0.43 |
| Polr3D (GeneID 40002) | 1 | -0.28 |
| CG31008 (GeneID 318554) | 1 | 0.41 |
| CG43131 (GeneID 12798230) | 1 | 0.46 |
| CG6650 (GeneID 39555) | 1 | 0.37 |
| Sil1 (GeneID 43034) | 1 | 0.3 |
| Lar (GeneID 35259) | 1 | -0.11 |
| Lar (GeneID 35259) | 2 | 0.19 |
| tth (GeneID 32318) | 1 | 0.72 |
| Drp1 (GeneID 33445) | 1 | 0.26 |
| CG32548 (GeneID 32826) | 1 | -0.08 |
| CG32548 (GeneID 32826) | 2 | 0.1 |
| lqf (GeneID 38846) | 1 | 0.45 |
| Fpgs2 (GeneID 326159) | 1 | 0.17 |
| CG31550 (GeneID 40661) | 1 | 0.15 |
| CG31550 (GeneID 40661) | 2 | 0.51 |
| Obp47a (GeneID 36162) | 1 | -0.03 |
| CG42538 (GeneID 8673985) | 1 | 0.48 |
| CG15717 (GeneID 32262) | 1 | 0.38 |
| insc (GeneID 37355) | 1 | -0.03 |
| Jon25Biii (GeneID 33706) | 1 | 0.15 |
| CG18476 (GeneID 41404) | 1 | 0.05 |
| Lcp65Ac (GeneID 38708) | 1 | 0.21 |
| CG10116 (GeneID 39515) | 1 | 0.47 |
| SMC3 (GeneID 32627) | 1 | 0.21 |
| Ets96B (GeneID 42952) | 1 | -0.33 |
| CG31075 (GeneID 43244) | 1 | 0.28 |
| Nup93-1 (GeneID 32350) | 1 | -1.93 |
| CG11029 (GeneID 33804) | 1 | -0.61 |
| AIMP1 (GeneID 35892) | 1 | 0.23 |
| CG2616 (GeneID 40915) | 1 | 0.02 |
| Sfp26Ad (GeneID 8673981) | 1 | -1.37 |
| PH4alphaEFB (GeneID 43620) | 1 | 0.42 |
| PH4alphaEFB (GeneID 43620) | 2 | 0.35 |
| CG13204 (GeneID 36227) | 1 | 0.36 |
| Nep3 (GeneID 33005) | 1 | 0.1 |
| CG6204 (GeneID 42877) | 1 | 0.22 |
| CG43740 (GeneID 31962) | 1 | -0.01 |
| CG43740 (GeneID 31962) | 2 | 0.48 |

9 entries from above in another layout:
gene knocked down	dsRNA no.	z-score, replicate 1
CG11029 (GeneID 33804)	1	-0.61
AIMP1 (GeneID 35892)	1	0.23
CG2616 (GeneID 40915)	1	0.02
Sfp26Ad (GeneID 8673981)	1	-1.37
PH4alphaEFB (GeneID 43620)	1	0.42
PH4alphaEFB (GeneID 43620)	2	0.35
CG13204 (GeneID 36227)	1	0.36
Nep3 (GeneID 33005)	1	0.1
CG6204 (GeneID 42877)	1	0.22

Next reagents:
| gene knocked down | dsRNA no. | z-score, replicate 1 |
| --- | --- | --- |
| CG4596 (GeneID 41312) | 1 | 0.41 |
| AANATL4 (GeneID 37213) | 1 | 0.08 |
| CG31265 (GeneID 42068) | 1 | 0.3 |
| Ctl1 (GeneID 38523) | 1 | 0.38 |
| HBS1 (GeneID 117365) | 1 | -0.06 |
| betaNACtes3 (GeneID 326224) | 1 | 0.33 |
| CG7328 (GeneID 40204) | 1 | 0.33 |
| Abp1 (GeneID 39520) | 1 | 0.39 |
| Orcokinin (GeneID 37806) | 1 | -0.26 |
| CG1722 (GeneID 33101) | 1 | 0.3 |
| MBD-R2 (GeneID 41498) | 1 | -1.75 |
| CG3091 (GeneID 31210) | 1 | 0 |
| CG9147 (GeneID 33855) | 1 | 0.21 |
| CG3397 (GeneID 41454) | 1 | 0.25 |
| hyx (GeneID 41086) | 1 | -1.62 |
| PCNA (GeneID 37290) | 1 | 0.25 |
| CG5162 (GeneID 32709) | 1 | 0.39 |
| niki (GeneID 42959) | 1 | 0.35 |
| CG18662 (GeneID 50437) | 1 | 0.44 |
| CG3123 (GeneID 33478) | 1 | -0.14 |
| CG8066 (GeneID 41766) | 1 | 0.27 |
| CG34284 (GeneID 5740234) | 1 | 0.02 |
| Acp33A + CG15841 (retired record) | 1 | 0.24 |
| Gss1 + Gss2 | 1 | 0.44 |
| Gss1 + Gss2 | 2 | 0.51 |
| CG31462 (retired record) (GeneID 326143) | 1 | 0.08 |
| smog (GeneID 33690) | 1 | 0.15 |
| smog (GeneID 33690) | 2 | -0.36 |
| Wwox (GeneID 34090) | 1 | 0.14 |
| Wwox (GeneID 34090) | 2 | 0.22 |
| Ranbp21 (GeneID 32970) | 1 | -0.01 |
| CR42545 (GeneID 8674105) | 1 | 0.11 |
| lncRNA:mimi (GeneID 12798523) | 1 | -0.31 |
| heix (GeneID 34961) | 1 | 0.1 |
| Ca-beta (GeneID 34557) | 1 | 0.03 |
| Ca-beta (GeneID 34557) | 2 | -0.08 |
| Ca-beta (GeneID 34557) | 3 | 0.49 |
| Ca-beta (GeneID 34557) | 4 | 0.5 |
| Obp85a (GeneID 41006) | 1 | 0.33 |
| CG15705 (GeneID 36815) | 1 | 0.47 |
| tadr (GeneID 35370) | 1 | 0.48 |
| CG14752 (GeneID 35840) | 1 | 0.24 |
| cg (GeneID 36571) | 1 | -5.48 |
| CG6163 (GeneID 39274) | 1 | 0.49 |
| Vav (GeneID 32920) | 1 | 0.49 |
| Alh (GeneID 40850) | 1 | -5.21 |
| Alh (GeneID 40850) | 2 | 0.36 |
| Alh (GeneID 40850) | 3 | 0.36 |
| RabGGTb (GeneID 47757) | 1 | 0.41 |
| CG6333 (GeneID 39953) | 1 | 0.32 |
| Smox (GeneID 31738) | 1 | -0.08 |
| Srp72 (GeneID 42439) | 1 | -0.55 |
| Tob (GeneID 32574) | 1 | 0.35 |
| U3-55K (GeneID 3346176) | 1 | 0.1 |
| CG17562 (GeneID 42021) | 1 | 0.65 |
| Cyp309a2 (GeneID 33439) | 1 | 0.3 |
| RnrL (GeneID 34392) | 1 | -0.13 |
| Noa36 (GeneID 43384) | 1 | 0.48 |
| Cyp28d1 (GeneID 33749) | 1 | 0.12 |
| Cyp28d1 (GeneID 33749) | 2 | 0.12 |
| CR17438 (GeneID 10178895) | 1 | 0.37 |
